Data taken from PMC3914767.
These are yes or no findings as the source states them, for the method shown. Some binding calls cover weakened binding; strength is not graded here.

Sequences of proteins named here, by UniProt entry; tags and fusion partners are left off. A change or cut given only in a name is not applied to a line headed by its entry. A line that says so, or that is headed by a name, gives the form on record, which may keep a tag or linker.
UniProt O96013: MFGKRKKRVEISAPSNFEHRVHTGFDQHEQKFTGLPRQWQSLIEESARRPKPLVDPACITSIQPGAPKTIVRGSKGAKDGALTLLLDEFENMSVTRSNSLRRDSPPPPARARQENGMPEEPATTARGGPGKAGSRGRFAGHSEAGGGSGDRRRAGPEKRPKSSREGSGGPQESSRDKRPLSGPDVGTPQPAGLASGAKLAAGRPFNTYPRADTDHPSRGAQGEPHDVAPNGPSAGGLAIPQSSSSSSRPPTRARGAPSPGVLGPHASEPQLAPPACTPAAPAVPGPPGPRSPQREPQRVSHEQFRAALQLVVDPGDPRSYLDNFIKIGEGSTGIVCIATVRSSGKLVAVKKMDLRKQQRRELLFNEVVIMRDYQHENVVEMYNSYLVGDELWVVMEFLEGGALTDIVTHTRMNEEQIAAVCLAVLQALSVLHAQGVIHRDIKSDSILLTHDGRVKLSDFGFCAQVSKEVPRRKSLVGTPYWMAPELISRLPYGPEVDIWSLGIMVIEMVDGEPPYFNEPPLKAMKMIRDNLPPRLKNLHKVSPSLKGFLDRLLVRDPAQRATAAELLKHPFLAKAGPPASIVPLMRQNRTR
PAK4-GFP Ser181Ala (O96013, form named): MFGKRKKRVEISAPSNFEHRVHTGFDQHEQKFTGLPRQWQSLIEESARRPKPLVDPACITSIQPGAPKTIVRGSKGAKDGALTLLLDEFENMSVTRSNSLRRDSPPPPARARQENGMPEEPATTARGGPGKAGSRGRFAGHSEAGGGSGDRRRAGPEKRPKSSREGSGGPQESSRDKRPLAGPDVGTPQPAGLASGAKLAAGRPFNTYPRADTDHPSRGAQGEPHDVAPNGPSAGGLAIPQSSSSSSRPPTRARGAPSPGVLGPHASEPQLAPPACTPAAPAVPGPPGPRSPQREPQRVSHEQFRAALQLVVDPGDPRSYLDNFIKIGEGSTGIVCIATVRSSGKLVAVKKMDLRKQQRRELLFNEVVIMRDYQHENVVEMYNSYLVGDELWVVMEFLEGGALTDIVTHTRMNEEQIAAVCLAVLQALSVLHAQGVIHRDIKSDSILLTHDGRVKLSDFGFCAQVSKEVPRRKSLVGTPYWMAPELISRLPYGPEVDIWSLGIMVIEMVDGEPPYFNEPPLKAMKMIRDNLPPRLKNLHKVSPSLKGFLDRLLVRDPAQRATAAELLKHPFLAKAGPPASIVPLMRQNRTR
PAK4-GFP Ser99Ala (O96013, form named): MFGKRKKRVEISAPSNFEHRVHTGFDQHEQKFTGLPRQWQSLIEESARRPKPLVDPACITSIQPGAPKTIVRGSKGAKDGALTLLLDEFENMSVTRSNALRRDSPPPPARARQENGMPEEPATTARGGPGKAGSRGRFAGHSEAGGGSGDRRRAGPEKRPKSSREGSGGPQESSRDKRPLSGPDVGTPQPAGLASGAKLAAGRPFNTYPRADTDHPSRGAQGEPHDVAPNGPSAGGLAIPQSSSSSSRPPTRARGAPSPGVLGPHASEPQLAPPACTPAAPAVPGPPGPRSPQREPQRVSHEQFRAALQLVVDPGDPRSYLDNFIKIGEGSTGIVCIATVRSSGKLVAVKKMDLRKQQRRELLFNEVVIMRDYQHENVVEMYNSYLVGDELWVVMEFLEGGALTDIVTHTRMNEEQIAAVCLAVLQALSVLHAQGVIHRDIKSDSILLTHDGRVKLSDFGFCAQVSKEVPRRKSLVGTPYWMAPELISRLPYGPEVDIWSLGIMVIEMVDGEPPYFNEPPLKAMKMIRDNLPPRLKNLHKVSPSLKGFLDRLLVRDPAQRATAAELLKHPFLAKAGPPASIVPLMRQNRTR
UniProt Q9P286: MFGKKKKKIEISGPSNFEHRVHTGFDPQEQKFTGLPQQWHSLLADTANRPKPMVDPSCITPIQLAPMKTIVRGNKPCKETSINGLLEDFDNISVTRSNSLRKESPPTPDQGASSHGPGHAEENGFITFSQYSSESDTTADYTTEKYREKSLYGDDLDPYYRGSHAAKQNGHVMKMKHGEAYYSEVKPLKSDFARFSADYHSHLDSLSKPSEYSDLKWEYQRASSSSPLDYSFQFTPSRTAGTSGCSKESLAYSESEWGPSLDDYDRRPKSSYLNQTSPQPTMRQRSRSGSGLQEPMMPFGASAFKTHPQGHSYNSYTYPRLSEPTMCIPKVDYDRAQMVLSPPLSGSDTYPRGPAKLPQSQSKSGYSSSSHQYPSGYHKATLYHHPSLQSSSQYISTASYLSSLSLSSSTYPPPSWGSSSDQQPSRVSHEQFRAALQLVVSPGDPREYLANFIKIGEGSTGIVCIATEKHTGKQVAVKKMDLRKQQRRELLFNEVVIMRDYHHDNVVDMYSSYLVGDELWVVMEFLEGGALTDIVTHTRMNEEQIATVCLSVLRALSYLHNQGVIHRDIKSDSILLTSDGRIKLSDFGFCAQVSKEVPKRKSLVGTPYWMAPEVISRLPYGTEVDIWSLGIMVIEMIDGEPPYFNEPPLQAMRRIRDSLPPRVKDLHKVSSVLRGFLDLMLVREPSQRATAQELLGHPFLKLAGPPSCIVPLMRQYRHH
UniProt P29311: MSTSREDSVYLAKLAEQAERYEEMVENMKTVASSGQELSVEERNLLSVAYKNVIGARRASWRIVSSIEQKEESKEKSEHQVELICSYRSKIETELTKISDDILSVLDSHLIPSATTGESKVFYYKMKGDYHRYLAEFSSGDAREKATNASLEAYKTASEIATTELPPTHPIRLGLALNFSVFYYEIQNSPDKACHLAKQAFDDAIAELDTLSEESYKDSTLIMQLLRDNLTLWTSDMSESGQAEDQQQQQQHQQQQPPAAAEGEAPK

What was measured:
[1] = target: PAK4-GFP Ser181Ala (human) (UniProt O96013); test: far-Western, overlay or dot blot; PAK-GFP proteins isolated with GFP-Trap from lysates of transfected HEK293 cells (in 10% serum, or serum-starved 10 h and stimulated with PMA 100 nM 30 min), blotted and probed with digoxygenin-labelled 14-3-3 (mix of yeast BMH1 and BMH2) in place of a primary antibody; both purified
[2] = target: PAK4-GFP Ser99Ala (human) (UniProt O96013); test: as above
[3] = target: PAK7-GFP (human) (UniProt Q9P286); test: as above
[4] = target: PAK7-GFP (human) (UniProt Q9P286); test: condition: only PAK-GFP on the beads dephosphorylated with lambda phosphatase; far-Western, overlay or dot blot; GFP-tagged proteins on GFP-Trap beads dephosphorylated with 3 ug lambda phosphatase, 2 mM MnCl2, 30 min 30°C (control: plus 10 mM EDTA), then overlay with digoxygenin-labelled 14-3-3; both purified

binding [1]: binds
binding [2]: binds
binding [3]: binds
binding [4]: no binding
Substance: digoxygenin-labelled 14-3-3 (a mix of the Saccharomyces cerevisiae BMH1 and BMH2 14-3-3 isoforms) (from UniProt P29311 1-267; P34730 1-273)
